In PMC11476584:
No constants are given. Whether binding was seen depends on the method and setting. Binding seen in cells or lysates may run through a third protein. Some results given as binding are weak or reduced against the parent protein; the word gives no strength. One block for each molecule: values may come before it.

The chains behind the UniProt entries cited, without tags or fusion partners. Residues count along the entry.
UniProt Q14643: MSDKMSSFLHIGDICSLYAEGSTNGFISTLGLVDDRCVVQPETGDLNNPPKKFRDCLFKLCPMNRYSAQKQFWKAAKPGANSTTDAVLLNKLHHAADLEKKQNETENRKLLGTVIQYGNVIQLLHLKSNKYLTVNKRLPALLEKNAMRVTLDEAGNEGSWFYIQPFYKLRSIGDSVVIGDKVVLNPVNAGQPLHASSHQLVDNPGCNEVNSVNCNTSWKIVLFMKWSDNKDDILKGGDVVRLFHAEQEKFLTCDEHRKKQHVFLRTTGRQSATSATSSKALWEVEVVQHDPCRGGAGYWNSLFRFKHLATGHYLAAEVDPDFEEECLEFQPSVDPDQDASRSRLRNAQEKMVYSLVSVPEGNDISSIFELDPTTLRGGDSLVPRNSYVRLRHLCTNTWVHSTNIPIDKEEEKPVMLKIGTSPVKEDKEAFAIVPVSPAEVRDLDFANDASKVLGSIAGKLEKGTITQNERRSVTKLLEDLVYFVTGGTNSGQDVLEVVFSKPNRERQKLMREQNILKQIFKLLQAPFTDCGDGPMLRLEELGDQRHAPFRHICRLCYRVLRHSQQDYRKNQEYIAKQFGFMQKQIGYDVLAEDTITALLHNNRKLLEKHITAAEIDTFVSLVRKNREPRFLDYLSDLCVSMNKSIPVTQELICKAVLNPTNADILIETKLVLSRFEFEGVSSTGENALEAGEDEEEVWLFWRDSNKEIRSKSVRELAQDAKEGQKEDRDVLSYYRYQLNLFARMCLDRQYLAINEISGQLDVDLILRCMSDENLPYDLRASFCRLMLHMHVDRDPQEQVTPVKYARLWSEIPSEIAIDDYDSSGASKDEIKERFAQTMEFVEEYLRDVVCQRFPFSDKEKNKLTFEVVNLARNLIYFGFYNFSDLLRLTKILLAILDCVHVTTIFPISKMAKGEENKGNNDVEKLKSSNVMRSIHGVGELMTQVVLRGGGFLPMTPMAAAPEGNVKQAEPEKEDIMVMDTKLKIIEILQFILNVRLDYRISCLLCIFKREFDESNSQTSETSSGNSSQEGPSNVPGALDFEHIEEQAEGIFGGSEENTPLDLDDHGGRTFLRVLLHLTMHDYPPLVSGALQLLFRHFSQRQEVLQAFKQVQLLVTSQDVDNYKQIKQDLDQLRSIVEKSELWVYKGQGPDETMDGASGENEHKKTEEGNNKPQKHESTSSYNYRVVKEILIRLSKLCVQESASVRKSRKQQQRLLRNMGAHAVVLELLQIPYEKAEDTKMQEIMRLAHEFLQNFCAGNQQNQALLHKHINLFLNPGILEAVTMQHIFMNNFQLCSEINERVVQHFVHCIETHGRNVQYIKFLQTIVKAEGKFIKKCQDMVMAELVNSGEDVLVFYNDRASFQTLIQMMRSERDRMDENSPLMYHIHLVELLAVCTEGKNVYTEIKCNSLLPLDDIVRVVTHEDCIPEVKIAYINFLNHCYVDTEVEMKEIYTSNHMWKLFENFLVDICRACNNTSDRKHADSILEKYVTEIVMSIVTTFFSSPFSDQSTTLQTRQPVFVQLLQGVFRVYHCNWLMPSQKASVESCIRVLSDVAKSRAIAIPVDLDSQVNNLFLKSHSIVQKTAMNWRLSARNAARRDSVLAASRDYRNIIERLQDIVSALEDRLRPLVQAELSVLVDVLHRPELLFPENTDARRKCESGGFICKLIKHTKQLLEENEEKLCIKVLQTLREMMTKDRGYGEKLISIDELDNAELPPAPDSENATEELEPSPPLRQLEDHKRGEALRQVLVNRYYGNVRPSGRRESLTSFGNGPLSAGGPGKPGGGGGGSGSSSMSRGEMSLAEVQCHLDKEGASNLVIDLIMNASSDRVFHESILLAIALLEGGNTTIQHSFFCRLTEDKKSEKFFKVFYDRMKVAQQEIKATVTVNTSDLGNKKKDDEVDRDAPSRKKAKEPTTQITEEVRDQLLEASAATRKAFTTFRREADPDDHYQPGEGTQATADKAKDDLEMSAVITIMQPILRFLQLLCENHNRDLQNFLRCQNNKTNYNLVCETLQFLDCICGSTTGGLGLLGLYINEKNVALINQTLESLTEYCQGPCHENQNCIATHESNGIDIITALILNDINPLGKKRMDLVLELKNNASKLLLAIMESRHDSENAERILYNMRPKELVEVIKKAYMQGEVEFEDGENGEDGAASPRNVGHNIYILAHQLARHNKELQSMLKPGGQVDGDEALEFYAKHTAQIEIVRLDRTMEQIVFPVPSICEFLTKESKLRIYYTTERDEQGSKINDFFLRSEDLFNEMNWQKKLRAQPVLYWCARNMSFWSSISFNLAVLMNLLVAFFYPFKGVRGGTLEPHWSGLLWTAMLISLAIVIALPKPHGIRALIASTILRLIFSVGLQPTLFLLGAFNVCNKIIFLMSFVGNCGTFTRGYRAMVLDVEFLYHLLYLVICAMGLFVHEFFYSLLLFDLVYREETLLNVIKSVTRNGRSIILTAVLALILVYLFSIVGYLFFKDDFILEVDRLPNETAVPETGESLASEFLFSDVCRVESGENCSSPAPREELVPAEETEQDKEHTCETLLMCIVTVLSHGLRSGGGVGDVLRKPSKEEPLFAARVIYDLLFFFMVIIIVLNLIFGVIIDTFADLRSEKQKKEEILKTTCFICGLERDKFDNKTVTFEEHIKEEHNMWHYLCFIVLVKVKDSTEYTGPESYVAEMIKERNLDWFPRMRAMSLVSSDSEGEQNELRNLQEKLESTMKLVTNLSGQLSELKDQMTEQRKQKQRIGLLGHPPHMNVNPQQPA
UniProt P02649, residues 19-317: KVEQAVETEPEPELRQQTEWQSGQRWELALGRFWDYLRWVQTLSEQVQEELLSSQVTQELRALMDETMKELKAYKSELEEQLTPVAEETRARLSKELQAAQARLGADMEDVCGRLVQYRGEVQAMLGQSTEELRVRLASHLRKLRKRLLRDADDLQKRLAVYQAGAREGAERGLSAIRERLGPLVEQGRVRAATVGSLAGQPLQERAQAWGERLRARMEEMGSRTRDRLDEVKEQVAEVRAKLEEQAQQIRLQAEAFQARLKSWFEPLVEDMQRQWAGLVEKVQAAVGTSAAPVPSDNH
UniProt P21796: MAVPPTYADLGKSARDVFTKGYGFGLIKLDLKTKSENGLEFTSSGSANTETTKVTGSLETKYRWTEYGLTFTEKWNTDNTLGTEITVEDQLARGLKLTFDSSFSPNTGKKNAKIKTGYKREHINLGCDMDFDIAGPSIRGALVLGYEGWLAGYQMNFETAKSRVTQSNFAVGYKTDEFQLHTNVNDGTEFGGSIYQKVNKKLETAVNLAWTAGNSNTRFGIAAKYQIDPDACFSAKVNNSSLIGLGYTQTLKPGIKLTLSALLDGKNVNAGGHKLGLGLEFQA

Key:
[1] = target: inositol 1,4,5-trisphosphate receptor type 1 (IP3R1) (human (endogenous in Huh7)) (UniProt Q14643); assay: proximity ligation; in situ Duolink PLA in fixed, permeabilised Huh7 cells (mock-, APOE3- or APOE4-transfected) with mouse anti-IP3R1 and rabbit anti-VDAC1 antibodies; 1 or 5 g/L glucose for six hours
[2] = target: Apolipoprotein E3 (APOE3), overexpressed in transfected Huh7 cells (human) (UniProt P02649); assay: co-IP; APOE precipitated with anti-APOE antibody (sc-13521) and Protein G Sepharose, overnight at 4 °C, from lysates of APOE3- and APOE4-transfected Huh7 cells; Western blot, target bands normalised to the APOE signal
[3] = target: Apolipoprotein E (APOE), endogenous in unmodified Huh7 cells (human (endogenous in Huh7)) (UniProt P02649); assay: co-IP; APOE precipitated with anti-APOE antibody (sc-13521) and Protein G Sepharose, overnight at 4 °C, from lysates of unmodified Huh7 cells; untreated or thapsigargin (50 µM, 24 h); low glucose (1 g/L) or glucose challenge (5 g/L, 6 h); Western blot, target bands normalised to the APOE band

- binding [1]: binds
- binding [2]: binds
- binding [3]: binds
Molecule: Voltage-dependent anion-selective channel 1 (VDAC1) (from UniProt P21796 1-283)

- binding [2]: binds
- binding [3]: binds
B1: Lon protease (LONP1) (enzyme, UniProt P36776 68-959)
chain: FWEASSRGGGAFSGGEDASEGGAEEGAGGAGGSAGAGEGPVITALTPMTIPDVFPHLPLIAITRNPVFPRFIKIIEVKNKKLVELLRRKVRLAQPYVGVFLKRDDSNESDVVESLDEIYHTGTFAQIHEMQDLGDKLRMIVMGHRRVHISRQLEVEPEEPEAENKHKPRRKSKRGKKEAEDELSARHPAELAMEPTPELPAEVLMVEVENVVHEDFQVTEEVKALTAEIVKTIRDIIALNPLYRESVLQMMQAGQRVVDNPIYLSDMGAALTGAESHELQDVLEETNIPKRLYKALSLLKKEFELSKLQQRLGREVEEKIKQTHRKYLLQEQLKIIKKELGLEKDDKDAIEEKFRERLKELVVPKHVMDVVDEELSKLGLLDNHSSEFNVTRNYLDWLTSIPWGKYSNENLDLARAQAVLEEDHYGMEDVKKRILEFIAVSQLRGSTQGKILCFYGPPGVGKTSIARSIARALNREYFRFSVGGMTDVAEIKGHRRTYVGAMPGKIIQCLKKTKTENPLILIDEVDKIGRGYQGDPSSALLELLDPEQNANFLDHYLDVPVDLSKVLFICTANVTDTIPEPLRDRMEMINVSGYVAQEKLAIAERYLVPQARALCGLDESKAKLSSDVLTLLIKQYCRESGVRNLQKQVEKVLRKSAYKIVSGEAESVEVTPENLQDFVGKPVFTVERMYDVTPPGVVMGLAWTAMGGSTLFVETSLRRPQDKDAKGDKDGSLEVTGQLGEVMKESARIAYTFARAFLMQHAPANDYLVTSHIHLHVPEGATPKDGPSAGCTIVTALLSLAMGRPVRQNLAMTGEVSLTGKILPVGGIKEKTIAAKRAGVTCIVLPAENKKDFYDLAAFITEGLEVHFVEHYREIFDIAFPDEQAEALAVER

- binding [2]: binds
- binding [3]: binds
B2: Mitochondrial import receptor subunit TOM40 (TOMM40) (protein, UniProt O96008 1-361)
chain: MGNVLAASSPPAGPPPPPAPALVGLPPPPPSPPGFTLPPLGGSLGAGTSTSRSSERTPGAATASASGAAEDGACGCLPNPGTFEECHRKCKELFPIQMEGVKLTVNKGLSNHFQVNHTVALSTIGESNYHFGVTYVGTKQLSPTEAFPVLVGDMDNSGSLNAQVIHQLGPGLRSKMAIQTQQSKFVNWQVDGEYRGSDFTAAVTLGNPDVLVGSGILVAHYLQSITPCLALGGELVYHRRPGEEGTVMSLAGKYTLNNWLATVTLGQAGMHATYYHKASDQLQVGVEFEASTRMQDTSVSFGYQLDLPKANLLFKGSVDSNWIVGATLEKKLPPLPLTLALGAFLNHRKNKFQCGFGLTIG
